Experimental data: the supplement of paper PMC8728848
The other results are listed elsewhere or left out.

Experiments:
Assay in all cases: glycan array binding signal (z-score within array); higher = stronger binding
Conditions in all cases: glycan notation: IUPAC condensed, linker removed
Gal3S4S(b1-4)GlcNAc = target: Gal3S4S(b1-4)GlcNAc
Outline: (§1)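 The binding signal is a Z-score computed within each array. Data were drawn from 3228 arrays in the Consortium for Functional Glycomics database, restricted to those with a known protein sequence. Scores were averaged over arrays of the same protein sequence at different concentrations or buffers, and over linkers, and negative values can be taken as non-binding.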

Gal3S6S(b1-4)GlcNAc = target: Gal3S6S(b1-4)GlcNAc
Outline: as §1

Gal3S6S(b1-4)GlcNAc6S = target: Gal3S6S(b1-4)GlcNAc6S
Outline: as §1

Gal4S(b1-4)GlcNAc = target: Gal4S(b1-4)GlcNAc
Outline: as §1

Gal4S6S(b1-4)GlcNAc = target: Gal4S6S(b1-4)GlcNAc
Outline: as §1

Gal6P(b1-4)GlcNAc = target: Gal6P(b1-4)GlcNAc
Outline: as §1

Gal6S(b1-3)GlcNAc = target: Gal6S(b1-3)GlcNAc
Outline: as §1

Gal6S(b1-3)GlcNAc6S = target: Gal6S(b1-3)GlcNAc6S
Outline: as §1

Gal6S(b1-4)Glc = target: Gal6S(b1-4)Glc
Outline: as §1

Gal6S(b1-4)Glc6S = target: Gal6S(b1-4)Glc6S
Outline: as §1

Gal6S(b1-4)GlcNAc = target: Gal6S(b1-4)GlcNAc
Outline: as §1

Gal6S(b1-4)GlcNAc6S = target: Gal6S(b1-4)GlcNAc6S
Outline: as §1

GalNAc(a1-3)Gal = target: GalNAc(a1-3)Gal
Outline: as §1

GalNAc(a1-3)GalNAc = target: GalNAc(a1-3)GalNAc
Outline: as §1

[1] = target: GalNAc(a1-3)GalNAc(a1-3)Gal(a1-4)Gal(b1-4)GlcNAc
Outline: as §1

[2] = target: GalNAc(a1-3)GalNAc(b1-3)Gal(a1-4)Gal(b1-4)Glc
Outline: as §1

[3] = target: GalNAc(a1-3)GalNAc(b1-3)Gal(a1-4)Gal(b1-4)GlcNAc
Outline: as §1

GalNAc(b1-3)Gal = target: GalNAc(b1-3)Gal
Outline: as §1

[4] = target: GalNAc(b1-3)Gal(a1-4)Gal(b1-4)GlcNAc
Outline: as §1

[5] = target: GalNAc(b1-3)Gal(a1-4)Gal(b1-4)GlcNAc(b1-3)Gal(b1-4)Glc
Outline: as §1

[6] = target: GalNAc(b1-3)Gal(a1-6)Gal(b1-4)Glc
Outline: as §1

GalNAc(b1-3)GalNAc = target: GalNAc(b1-3)GalNAc
Outline: as §1

GalNAc(b1-3)GlcNAc = target: GalNAc(b1-3)GlcNAc
Outline: as §1

GalNAc(b1-4)Gal(b1-4)Glc = target: GalNAc(b1-4)Gal(b1-4)Glc
Outline: as §1

GalNAc(b1-4)GlcNAc = target: GalNAc(b1-4)GlcNAc
Outline: as §1

[7] = target: GalNAc(b1-4)GlcNAc(b1-2)Man
Outline: as §1

[8] = target: GalNAc(b1-4)GlcNAc(b1-2)Man(a1-3)[GalNAc(b1-4)GlcNAc(b1-2)Man(a1-6)]Man(b1-4)GlcNAc(b1-4)GlcNAc
Outline: as §1

[9] = target: GalNAc(b1-4)GlcNAc(b1-3)GalNAc(b1-4)GlcNAc
Outline: as §1

GalNAc(b1-4)GlcNAc6S = target: GalNAc(b1-4)GlcNAc6S
Outline: as §1

GalNAc(b1-6)GalNAc = target: GalNAc(b1-6)GalNAc
Outline: as §1

GalNAc3S(b1-4)GlcNAc = target: GalNAc3S(b1-4)GlcNAc
Outline: as §1

GalNAc3S(b1-4)GlcNAc3S = target: GalNAc3S(b1-4)GlcNAc3S
Outline: as §1

[10] = target: GalNAc3S(b1-4)[Fuc(a1-3)]GlcNAc
Outline: as §1

GalNAc4S6S(b1-4)GlcNAc = target: GalNAc4S6S(b1-4)GlcNAc
Outline: as §1

GalNAc6S(b1-4)GlcNAc = target: GalNAc6S(b1-4)GlcNAc
Outline: as §1

Glc(a1-4)Glc = target: Glc(a1-4)Glc
Outline: as §1

[11] = target: Glc(a1-4)Glc(a1-4)Glc(a1-4)Glc
Outline: as §1

Glc(a1-6)Glc(a1-6)Glc = target: Glc(a1-6)Glc(a1-6)Glc
Outline: as §1

B1: Flo1 (Saccharomyces cerevisiae), P32768 (protein)
chain: SGATEACLPAGQRKSGMNINFYQYSLKDSSTYSNAAYMAYGYASKTKLGSVGGQTDISIDYNIPCVSSSGTFPCPQEDSYGNWGCKGMGACSNSQGIAYWSTDLFGFYTTPTNVTLEMTGYFLPPQTGSYTFKFATVDDSAILSVGGATAFNCCAQQQPPITSTNFTIDGIKPWGGSLPPNIEGTVYMYAGYYYPMKVVYSNAVSWGTLPISVTLPDGTTVSDDFEGYVYSFDDDLSQSNCTVPDPSNY
Question: B1 was tested. Which “glycan array binding signal (z-score)” value (Gal3S4S(b1-4)GlcNAc) did it give?
Answer: -0.376

Question: And the “glycan array binding signal (z-score)” value (Gal3S6S(b1-4)GlcNAc)?
Answer: -0.469

Question: What about the “glycan array binding signal (z-score)” value (Gal3S6S(b1-4)GlcNAc6S) of the same binder?
Answer: -0.345

Question: And the “glycan array binding signal (z-score)” value (Gal4S(b1-4)GlcNAc)?
Answer: -0.101

Question: And the “glycan array binding signal (z-score)” value (Gal4S6S(b1-4)GlcNAc)?
Answer: -0.674

Question: And the “glycan array binding signal (z-score)” value (Gal6P(b1-4)GlcNAc)?
Answer: 0.464

Question: And the “glycan array binding signal (z-score)” value (Gal6S(b1-3)GlcNAc)?
Answer: -0.48

Question: What about the “glycan array binding signal (z-score)” value (Gal6S(b1-3)GlcNAc6S) of the same binder?
Answer: -0.203

Question: What about the “glycan array binding signal (z-score)” value (Gal6S(b1-4)Glc) of the same binder?
Answer: -0.183

Question: What about the “glycan array binding signal (z-score)” value (Gal6S(b1-4)Glc6S) of the same binder?
Answer: -0.279

Question: What about the “glycan array binding signal (z-score)” value (Gal6S(b1-4)GlcNAc) of the same binder?
Answer: -0.111

Question: What about the “glycan array binding signal (z-score)” value (Gal6S(b1-4)GlcNAc6S) of the same binder?
Answer: -0.216

Question: And the “glycan array binding signal (z-score)” value (GalNAc(a1-3)Gal)?
Answer: -0.605

Question: What about the “glycan array binding signal (z-score)” value (GalNAc(a1-3)GalNAc) of the same binder?
Answer: -0.534

Question: And the “glycan array binding signal (z-score)” value [1]?
Answer: -0.87

Question: What about the “glycan array binding signal (z-score)” value [2] of the same binder?
Answer: 0.141

Question: What about the “glycan array binding signal (z-score)” value [3] of the same binder?
Answer: -0.599

Question: What about the “glycan array binding signal (z-score)” value (GalNAc(b1-3)Gal) of the same binder?
Answer: -0.42

Question: And the “glycan array binding signal (z-score)” value [4]?
Answer: -0.281

Question: What about the “glycan array binding signal (z-score)” value [5] of the same binder?
Answer: -0.286

Question: What about the “glycan array binding signal (z-score)” value [6] of the same binder?
Answer: -0.629

Question: And the “glycan array binding signal (z-score)” value (GalNAc(b1-3)GalNAc)?
Answer: -0.28

Question: What about the “glycan array binding signal (z-score)” value (GalNAc(b1-3)GlcNAc) of the same binder?
Answer: -0.179

Question: What about the “glycan array binding signal (z-score)” value (GalNAc(b1-4)Gal(b1-4)Glc) of the same binder?
Answer: 3.53

Question: What about the “glycan array binding signal (z-score)” value (GalNAc(b1-4)GlcNAc) of the same binder?
Answer: -0.424

Question: What about the “glycan array binding signal (z-score)” value [7] of the same binder?
Answer: 0.122

Question: And the “glycan array binding signal (z-score)” value [8]?
Answer: 0.773

Question: What about the “glycan array binding signal (z-score)” value [9] of the same binder?
Answer: -0.719

Question: And the “glycan array binding signal (z-score)” value (GalNAc(b1-4)GlcNAc6S)?
Answer: -0.808

Question: And the “glycan array binding signal (z-score)” value (GalNAc(b1-6)GalNAc)?
Answer: -0.41

Question: And the “glycan array binding signal (z-score)” value (GalNAc3S(b1-4)GlcNAc)?
Answer: -0.358

Question: And the “glycan array binding signal (z-score)” value (GalNAc3S(b1-4)GlcNAc3S)?
Answer: -0.046

Question: And the “glycan array binding signal (z-score)” value [10]?
Answer: 0.347

Question: And the “glycan array binding signal (z-score)” value (GalNAc4S6S(b1-4)GlcNAc)?
Answer: 3.28

Question: What about the “glycan array binding signal (z-score)” value (GalNAc6S(b1-4)GlcNAc) of the same binder?
Answer: -0.47

Question: What about the “glycan array binding signal (z-score)” value (Glc(a1-4)Glc) of the same binder?
Answer: -0.567

Question: What about the “glycan array binding signal (z-score)” value [11] of the same binder?
Answer: 0.609

Question: And the “glycan array binding signal (z-score)” value (Glc(a1-6)Glc(a1-6)Glc)?
Answer: -0.407
